Our source for the binding signal values is article PMC7819943, “Rice protein-binding microarrays: a tool to detect cis-acting elements near promoter regions in rice”.

The other results are listed elsewhere or left out.

The assay addresses T1, OsSMF1 (Oryza sativa, UniProt Q6ZLB0 1-436).
T1 sequence: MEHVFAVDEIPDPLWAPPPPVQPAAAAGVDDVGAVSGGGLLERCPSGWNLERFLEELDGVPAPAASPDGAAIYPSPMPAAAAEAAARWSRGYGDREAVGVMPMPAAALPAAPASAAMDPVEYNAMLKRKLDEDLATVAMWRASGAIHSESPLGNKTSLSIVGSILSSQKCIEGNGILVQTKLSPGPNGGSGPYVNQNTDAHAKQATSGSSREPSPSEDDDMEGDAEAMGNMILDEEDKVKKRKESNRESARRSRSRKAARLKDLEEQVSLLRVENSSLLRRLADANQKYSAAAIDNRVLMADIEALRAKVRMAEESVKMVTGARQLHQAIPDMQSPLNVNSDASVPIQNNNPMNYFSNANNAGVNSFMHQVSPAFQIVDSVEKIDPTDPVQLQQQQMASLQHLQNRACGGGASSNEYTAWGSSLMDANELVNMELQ
The experiment in a line: protein-binding microarray (RPBM); PBS, 2% BSA, 51.3 ng/ul salmon testes DNA, 50 uM zinc acetate, 200 nM TF, 25 C, 1 h; high values mean tight binding. Particulars: protein: recombinant; tags: N-terminal polyhistidine and DsRed monomer fusion (pET32a); chain copies: 2; label: CyDye5-dUTP incorporated in the synthesized complementary strand; 3' TTTTT single-stranded linker to array surface; dsDNA, one strand shown. The essentials:
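Transcription factors were made in E. coli BL21-CodonPlus as N-terminal fusions to a polyhistidine tag and DsRed, then purified on Ni–NTA. After primer extension with Cy5-dUTP and blocking with 2% BSA, a custom Agilent array was exposed for 1 h at 25 °C to 200 nM protein in PBS, 2% BSA, salmon testes DNA and 50 µM zinc acetate. Washed arrays were scanned on an Axon 4000B, and the binding signal is per-feature fluorescence intensity in arbitrary units.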
As for “CTCCATGCGCTGACGTGACATTGCCACAGTGGTGCCTACGCGGAGTCACCTAGTGCAG”, the binding signal is 7290 fluorescence intensity (a.u.).

In the case of “AGTTCCATGCAATGCCACGTACTCCTCGCTACCTGCTGGGCGGAGTCACCTAGTGCAG”, the binding signal was 18000 fluorescence intensity (a.u.).

As to “ATGCGGCTGATGTGTATGTTTGACAACTTATTTGTGGATTCGGAGTCACCTAGTGCAG”, the binding signal is 6030 fluorescence intensity (a.u.).

Regarding “TGTGCTTCTGAAACTGATGGTGTTTCTGACGAAGGCCACGCGGAGTCACCTAGTGCAG”, the binding signal was 3180 fluorescence intensity (a.u.).

Regarding “CACTGACTTAGCTCCGAGGTGGACGCACCAAGGCCACTTGCGGAGTCACCTAGTGCAG”, the binding signal was 3990 fluorescence intensity (a.u.).

With “TATCCGGCTGCCTCGTGTCCAGACACCTGGCACAACACACCGGAGTCACCTAGTGCAG”, the binding signal is 3750 fluorescence intensity (a.u.).

As to “TAACGGCTCCGCGTCGTGTGAGTTGGCGAGCCCGAGGAGCCGGAGTCACCTAGTGCAG”, the binding signal is 4970 fluorescence intensity (a.u.).

As for “TGGTCATGGCGTACGCTGCCGTGTCATTCGATCTCTGCTCCGGAGTCACCTAGTGCAG”, the binding signal is 10700 fluorescence intensity (a.u.).

For the sequence “GGCTGTCTGTCTGTCTCTCCCCGCACATGTCAGCCTACTACGGAGTCACCTAGTGCAG”, the binding signal was 4180 fluorescence intensity (a.u.).

For the sequence “TTTTATCGGTGTTTTGGTACGTCATCTTTGTTTGAGTCGGCGGAGTCACCTAGTGCAG”, the binding signal is 7170 fluorescence intensity (a.u.).

For the sequence “TTGCGCGTCAGGCCGGCGTCTCCGTGATTCTCCCCGTCCCCGGAGTCACCTAGTGCAG”, the binding signal was 3180 fluorescence intensity (a.u.).

As to “AGGGCTAGGCGGACGCCCTGGTCGAGCTGCTGATCAAGCACGGAGTCACCTAGTGCAG”, the binding signal is 3460 fluorescence intensity (a.u.).

With “ATTAACGATTTCTCACACCCTATCTATGACATGTGGGCCTCGGAGTCACCTAGTGCAG”, the binding signal is 5700 fluorescence intensity (a.u.).

Turning to “GAGGCATGGCCCACGCAACGCGCCAAGCCACCACATCACGCGGAGTCACCTAGTGCAG”, the binding signal was 4660 fluorescence intensity (a.u.).

For “AAAGCAAAACATGACTCCACTTCCGTGCTGTACTCTGGTGCGGAGTCACCTAGTGCAG”, the binding signal was 4620 fluorescence intensity (a.u.).

Regarding “AGCCTCACTTCGGGCCGACCGTGCCAACGGGCTGACTAGGCGGAGTCACCTAGTGCAG”, the binding signal is 4970 fluorescence intensity (a.u.).

Turning to “CTGGATGAGCAGACGCAGGCGCGGGTGCCTCACGTGATGCCGGAGTCACCTAGTGCAG”, the binding signal was 7160 fluorescence intensity (a.u.).

As for “TCCCACTATCTCATGACATATGAGAAGAGAGAGAGATAGACGGAGTCACCTAGTGCAG”, the binding signal was 5490 fluorescence intensity (a.u.).

On to “TGCCTCTCTTTTCCCTCCGGTGGCGGTGATGGCGTCGGCGCGGAGTCACCTAGTGCAG”, for which the binding signal was 3460 fluorescence intensity (a.u.).

Consider “TCCCCTCCCGTCCCGTCCCCGAGCGGAAATAAATGCAGCCCGGAGTCACCTAGTGCAG”, for which the binding signal was 3350 fluorescence intensity (a.u.).

As to “ATTTAGTGGTTTCTATGTCCACTTAGTCACACCCTGATCTCGGAGTCACCTAGTGCAG”, the binding signal is 4460 fluorescence intensity (a.u.).

“TACGTACGCACACGCACGCTATAAATTGCACCATCATCTCCGGAGTCACCTAGTGCAG”: the binding signal is 3960 fluorescence intensity (a.u.).

As to “AACTGACATGTGAGTCACTAGTCTAATACGAAAGATTTAGCGGAGTCACCTAGTGCAG”, the binding signal is 7340 fluorescence intensity (a.u.).

For “ACTATTTACCACTCTTACAAGTGACAATTAAAGATTTGCCCGGAGTCACCTAGTGCAG”, the binding signal was 3340 fluorescence intensity (a.u.).

For “CGTGGGCGCTCCCTGTCATCGGCCACCTCCACCACGTCGCCGGAGTCACCTAGTGCAG”, the binding signal was 5620 fluorescence intensity (a.u.).

Turning to “CTGACACATCGGGCCCACATAATCCGACCCCACCTGTCACCGGAGTCACCTAGTGCAG”, the binding signal was 3370 fluorescence intensity (a.u.).

In the case of “GAGGATGCTGACGTCATCGAACGTGCCGCCGCCGCGGCGACGGAGTCACCTAGTGCAG”, the binding signal was 8120 fluorescence intensity (a.u.).

“GGCTGTGTCACGCCTCACCATGCCGACGCATTTCTCCGTGCGGAGTCACCTAGTGCAG”: the binding signal is 3830 fluorescence intensity (a.u.).

“AGCTTTTCTTTTCTACACAAAGGGAAGGGAAAGAAGAAACCGGAGTCACCTAGTGCAG”: the binding signal was 37800 fluorescence intensity (a.u.).

As to “CCACTTCGTAGTCGTAGTTCAGCATATCAGCCACTCTTTCCGGAGTCACCTAGTGCAG”, the binding signal was 3270 fluorescence intensity (a.u.).

For “GCACTTAGTCACGCCAAGACGGAGGTGACATGTGTTCGTTCGGAGTCACCTAGTGCAG”, the binding signal is 4070 fluorescence intensity (a.u.).

“CAACCCACGCAACTCCAGCTTACCGTGGCCGCCGCCACCCCGGAGTCACCTAGTGCAG”: the binding signal was 3540 fluorescence intensity (a.u.).

Regarding “AATGTCATCCACTCGAGCGCGAGAGAATGTATTAGCCACGCGGAGTCACCTAGTGCAG”, the binding signal was 3190 fluorescence intensity (a.u.).

Regarding “CCAACGGTTGAAACTATTTTGATGACGTGGCTAAATGTGGCGGAGTCACCTAGTGCAG”, the binding signal was 24800 fluorescence intensity (a.u.).

For “CTGACTGGGTAGGAGGAAGGTGGAGGTGGGGAGGATGCGGCGGAGTCACCTAGTGCAG”, the binding signal is 3510 fluorescence intensity (a.u.).

Regarding “CCTCGAGATGGTGATCTCATGGTTGTCTATGTGGAGCTTTCGGAGTCACCTAGTGCAG”, the binding signal is 3930 fluorescence intensity (a.u.).

On to “GGCTAGTCTCTAGGCCCTTGCAGTTTATTCCGCGTTCGTGCGGAGTCACCTAGTGCAG”, for which the binding signal was 3360 fluorescence intensity (a.u.).

Turning to “ACCTACATGTGCGTAATATTCGTGGACACCAGGATTTAAACGGAGTCACCTAGTGCAG”, the binding signal was 3510 fluorescence intensity (a.u.).

For the sequence “TGGCGGAAGGGGCGGCCGCTGAGCGACGCCACGTCGGATACGGAGTCACCTAGTGCAG”, the binding signal was 12000 fluorescence intensity (a.u.).

Turning to “AGACCACATAGAATGGAAGCGTCATCAGTTTCCACGCAATCGGAGTCACCTAGTGCAG”, the binding signal is 6480 fluorescence intensity (a.u.).

For “GTAAGTCCACCTGTCTATATGCAATATTGCTTTGTCCACGCGGAGTCACCTAGTGCAG”, the binding signal was 22800 fluorescence intensity (a.u.).

“CTGGAAGCAACCAAAGATGGAGGATGGGGTTTTGTGGTACCGGAGTCACCTAGTGCAG”: the binding signal was 3310 fluorescence intensity (a.u.).
